Data as given in PubChem BioAssay AID1259308 (NCATS, 2017)

- Screen: 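Knock-downs that increase output of a recombinant reporter protein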 (primary screen)
- System: human HEK293 embryonic kidney cells stably expressing firefly luciferase (HEK-CMV-Luc2-Hygro)
- Reagent: single siRNA against human genes, 0.8 pmol siRNA per well
- Time to read-out: 72 h
- Measured: 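Reporter luminescence and viable-cell signal on separate replicate plates, given as percent of non-targeting control and median/MAD z-scores, plus per-cell luciferase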
- Direction: total luciferase, z-score: higher = more reporter protein produced
- Hit rule: 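Active when the median/MAD z-score for overall luciferase is greater than 3; a gene was taken forward for validation with new siRNAs if at least two of its three siRNAs passed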
- Meaning of the calls: active = raised luciferase; inactive = no rise
The whole screen tested about 59,000 reagents; shown is an unselected part. About 1,510 of them (2.6%) were called active. 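Calls use total luciferase alone and ignore viability, so some active siRNAs may act by altering cell number.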 A number with no mark means an inactive call. Reagents against one gene are numbered here. Further read-outs or replicates are left out here.

total luciferase, z-score, by gene and reagent
RABL2A: #1 -0.593; #2 0.668; #3 2.78
RAMP2: #1 -0.47; #2 0.166; #3 -0.848
PTAR1: #1 1.39; #2 -1.75; #3 -1.97
RPL8: #1 -2.65; #2 -2.38; #3 -2.19
TRIM53BP: #1 -0.376; #2 0.00251; #3 2.43
NEFH: #1 2.06; #2 1.73; #3 -0.768
CERT1: #1 0.0696; #2 -0.102; #3 -0.598
ATP2B2: #1 0.638; #2 0.1; #3 -1.87
PLEKHF2: #1 0.942; #2 0.0909; #3 -0.232
MICU2: #1 -1.18; #2 0.474; #3 1.62

Entries listed so far whose target name begins with C or c (3):
total luciferase, z-score, by gene and reagent
CERT1: #1 0.0696; #2 -0.102; #3 -0.598

The listing continues:
total luciferase, z-score, by gene and reagent
SPATA33: #1 0.446; #2 -0.135; #3 -0.0951
KIFBP: #1 0.146; #2 0.987; #3 -1.18
ARL3: #1 -0.0798; #2 -0.169; #3 -0.476
KIF26B: #1 0.129; #2 0.0694; #3 -0.262
VPS35L: #1 -0.812; #2 2.08; #3 -1.81
SPRY3: #1 -0.498; #2 -1.4; #3 -1.13
STRN4: #1 -0.736; #2 -0.173; #3 -1
VTCN1: #1 1.55; #2 -0.881; #3 -0.82
GNAT1: #1 -0.727; #2 1.01; #3 -0.00207
SEPHS1: #1 -0.506; #2 -0.842; #3 -0.9
RTP2: #1 0.638; #2 -0.0304; #3 -0.115
ACP3: #1 0.265; #2 1.61; #3 0.943
NXPE2: #1 -0.76; #2 -0.221; #3 -1.57
MAGEA11: #1 0.0341; #2 0.98; #3 1.11
GABRE: #1 0.313; #2 -0.177; #3 0.715
